In patent US5411707A, “Vacuum extractor incorporating a condenser column” (priority 1994, dated 1995):

Legend:
[1] = Recovery of volatile organic analytes from spiked water and cod liver oil/water emulsion (Table 3); conditions: 10 min, condenser -10° C., ± one sigma; for Recovery, H2O/Oil 20 mL: 1 g cod liver oil and 20 ml water emulsion; for Recovery, H2O/Oil 5 mL: 1 gram cod liver oil and 5 ml water emulsion; for Recovery, Water 5 mL: 5 mL water, relative to internal standard d3-vinylchloride; for Recovery, Water 20 mL: 20 mL water, relative to d3-vinylchloride
[2] = Recovery of volatile organic analytes from spiked soil (Table 5); conditions: 50 ppb, condenser -10° C.; for Recovery, Soil/Water: 5 g soil + 5 ml water slurry, 10 min; for Recovery, Soil/Oil Water: 5 g soil + 1 g cod liver oil + water slurry; for Recovery, Soil/Oil: 5 g soil + 1 g cod liver oil, spiked using 0.2 ml water
[3] = Method detection limits for volatile organic analytes in water (Table 6); conditions: 5 mL water, 4 ppb; for Method Detection Limit, External Standard Method: average of three nonconsecutive-day studies; for Method Detection Limit, Internal Standard Method: d3-vinylchloride internal standard
[4] = Method detection limits for volatile organic analytes in soil (Table 7); conditions: 4 ppb, average of three nonconsecutive-day studies, values marked ^c: MDL exceed concentration studies
[5] = 1 gram cod liver oil, composite of 25, 50 and 200 ppb spikes, 10 min, condenser -10° C.

Row | SMILES | Recovery, H2O/Oil 20 mL [1] [%] | Recovery, H2O/Oil 5 mL [1] [%] | Recovery, Water 5 mL [1] [%] | Recovery, Water 20 mL [1] [%] | Recovery, Soil/Water [2] [%] | Method Detection Limit, External Standard Method [3] [PPb] | Method Detection Limit, Internal Standard Method [3] [PPb] | MDL, External Standard Method [4] [ppb] | MDL, Internal Standard Method [4] [ppb] | Oil Recovery [5] [%] | Recovery, Soil/Oil Water [2] [%] | Recovery, Soil/Oil [2] [%] | Oil Recovery
1 | ClC(Cl)(Cl)Cl [Carbon Tetrachloride] | 64 ± 12 | 72 ± 17 | 91 ± 14 | 90 ± 18 | 88 ± 59 | 1.5 | 1.9 | 1.7 | 1.5 | 54 ± 5 | – | – | –
2 | Cc1ccc(C)cc1 [Para Xylene] | 43 ± 12 | 38 ± 10 | 86 ± 8 | 82 ± 19 | 60 ± 19 | 2.3 | 1.8 | 3.9 | 2.9 | 25 ± 3 | 58 ± 10 | 75 ± 18 | –
3 | C=C(Cl)Cl [1,1-Dichloroethene] | 70 ± 16 | 103 ± 17 | 84 ± 6 | 74 ± 15 | 53 ± 20 | 3.4 | 2.8 | 3.8 | 3.1 | 71 ± 24 | 65 ± 9 | 81 ± 12 | –
4 | Cl/C=C\CCl [cis-1,3-Dichloropropene] | 57 ± 12 | 61 ± 9 | 94 ± 12 | 87 ± 19 | 64 ± 20 | 2.1 | 1.7 | 2.5 | 1.6 | 42 ± 6 | 53 ± 5 | 73 ± 17 | –
5 | Cl/C=C/CCl [trans-1,3-Dichloropropene] | 53 ± 9 | 54 ± 9 | 94 ± 15 | 87 ± 18 | 70 ± 18 | 2.3 | 1.9 | 2.4 | 1.8 | 34 ± 5 | 51 ± 5 | 66 ± 18 | –
6 | Cl/C=C\Cl [Cis-1,2-Dichloroethene] | 74 ± 12 | 86 ± 11 | 85 ± 8 | 82 ± 18 | 66 ± 14 | 2.4 | 2.4 | 2.7 | 2.0 | – | 69 ± 11 | 126 ± 13 | 71 ± 24
7 | CBr [Bromomethane] | 90 ± 23 | 120 ± 20 | 105 ± 9 | 99 ± 21 | 63 ± 33 | 2.5 | 1.9 | 4.9 | 4.8 | 87 ± 15 | 82 ± 23 | 81 ± 24 | –
8 | S=C=S [Carbon Disulfide] | 95 ± 29 | 115 ± 20 | 110 ± 8 | 109 ± 30 | 50 ± 20 | 2.5 | 1.9 | 3.2 | 2.3 | 92 ± 14 | 53 ± 11 | 92 ± 19 | –
9 | CCc1ccccc1 [Ethyl Benzene] | 45 ± 9 | 40 ± 10 | 90 ± 12 | 80 ± 18 | 70 ± 23 | 2.4 | 1.8 | 4.1 | 2.8 | – | 56 ± 5 | 83 ± 23 | 31 ± 2
10 | BrC(Br)Br [Bromoform] | 34 ± 7 | 35 ± 8 | 85 ± 19 | 83 ± 23 | 81 ± 21 | 2.3 | 2.1 | 2.5 | 1.5 | 19 ± 7 | 34 ± 3 | 30 | –
11 | ClC(Br)Br [Dibromochloromethane] | 50 ± 10 | 47 ± 9 | 90 ± 12 | 87 ± 20 | 74 ± 18 | 2.1 | 1.9 | 2.9 | 1.5 | 25 ± 6 | 47 ± 4 | 65 ± 22 | –

Read-outs that look alike come from different tables or passages of the source.
